For assay [1], the target named is T1, wild type US2 with three HA tags added to the C-terminus (human cytomegalovirus) (UniProt P09713).
T1 sequence: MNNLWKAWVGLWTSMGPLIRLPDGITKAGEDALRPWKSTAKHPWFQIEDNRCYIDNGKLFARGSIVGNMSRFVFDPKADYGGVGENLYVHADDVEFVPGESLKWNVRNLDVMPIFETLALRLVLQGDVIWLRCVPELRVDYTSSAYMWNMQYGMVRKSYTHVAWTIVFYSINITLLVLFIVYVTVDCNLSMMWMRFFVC
Briefly: affinity purification with mass spectrometry; stable U373-MG lines (US2-3xHA with nonsense shRNA, CypC knock-down or CypC overexpression; US2 + HA-HLA-A68), 8 h 25 uM MG132, lysed in 1% digitonin, anti-HA agarose beads, LC-MS/MS (Orbitrap Elite), background of U373-MG + nonsense shRNA cells subtracted.

Chains of the proteins cited; added tags and fusions are not shown. Residues count along the entry.
UniProt P11021, residues 19-654: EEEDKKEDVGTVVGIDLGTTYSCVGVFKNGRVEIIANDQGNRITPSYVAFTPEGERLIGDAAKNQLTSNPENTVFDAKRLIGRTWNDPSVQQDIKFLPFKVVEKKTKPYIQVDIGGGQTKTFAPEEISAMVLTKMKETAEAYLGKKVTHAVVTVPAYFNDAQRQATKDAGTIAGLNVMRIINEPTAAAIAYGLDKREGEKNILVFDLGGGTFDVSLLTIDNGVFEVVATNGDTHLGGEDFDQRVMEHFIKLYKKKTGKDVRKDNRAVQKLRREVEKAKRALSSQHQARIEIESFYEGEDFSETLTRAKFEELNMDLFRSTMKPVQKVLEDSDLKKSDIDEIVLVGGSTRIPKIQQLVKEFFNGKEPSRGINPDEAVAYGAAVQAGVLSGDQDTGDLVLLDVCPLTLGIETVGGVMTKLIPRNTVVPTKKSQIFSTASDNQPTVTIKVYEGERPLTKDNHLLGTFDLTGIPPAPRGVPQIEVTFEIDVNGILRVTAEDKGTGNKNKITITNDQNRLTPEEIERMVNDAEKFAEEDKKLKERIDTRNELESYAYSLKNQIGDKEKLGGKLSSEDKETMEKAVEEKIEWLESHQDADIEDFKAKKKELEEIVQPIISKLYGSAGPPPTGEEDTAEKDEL
UniProt Q00610: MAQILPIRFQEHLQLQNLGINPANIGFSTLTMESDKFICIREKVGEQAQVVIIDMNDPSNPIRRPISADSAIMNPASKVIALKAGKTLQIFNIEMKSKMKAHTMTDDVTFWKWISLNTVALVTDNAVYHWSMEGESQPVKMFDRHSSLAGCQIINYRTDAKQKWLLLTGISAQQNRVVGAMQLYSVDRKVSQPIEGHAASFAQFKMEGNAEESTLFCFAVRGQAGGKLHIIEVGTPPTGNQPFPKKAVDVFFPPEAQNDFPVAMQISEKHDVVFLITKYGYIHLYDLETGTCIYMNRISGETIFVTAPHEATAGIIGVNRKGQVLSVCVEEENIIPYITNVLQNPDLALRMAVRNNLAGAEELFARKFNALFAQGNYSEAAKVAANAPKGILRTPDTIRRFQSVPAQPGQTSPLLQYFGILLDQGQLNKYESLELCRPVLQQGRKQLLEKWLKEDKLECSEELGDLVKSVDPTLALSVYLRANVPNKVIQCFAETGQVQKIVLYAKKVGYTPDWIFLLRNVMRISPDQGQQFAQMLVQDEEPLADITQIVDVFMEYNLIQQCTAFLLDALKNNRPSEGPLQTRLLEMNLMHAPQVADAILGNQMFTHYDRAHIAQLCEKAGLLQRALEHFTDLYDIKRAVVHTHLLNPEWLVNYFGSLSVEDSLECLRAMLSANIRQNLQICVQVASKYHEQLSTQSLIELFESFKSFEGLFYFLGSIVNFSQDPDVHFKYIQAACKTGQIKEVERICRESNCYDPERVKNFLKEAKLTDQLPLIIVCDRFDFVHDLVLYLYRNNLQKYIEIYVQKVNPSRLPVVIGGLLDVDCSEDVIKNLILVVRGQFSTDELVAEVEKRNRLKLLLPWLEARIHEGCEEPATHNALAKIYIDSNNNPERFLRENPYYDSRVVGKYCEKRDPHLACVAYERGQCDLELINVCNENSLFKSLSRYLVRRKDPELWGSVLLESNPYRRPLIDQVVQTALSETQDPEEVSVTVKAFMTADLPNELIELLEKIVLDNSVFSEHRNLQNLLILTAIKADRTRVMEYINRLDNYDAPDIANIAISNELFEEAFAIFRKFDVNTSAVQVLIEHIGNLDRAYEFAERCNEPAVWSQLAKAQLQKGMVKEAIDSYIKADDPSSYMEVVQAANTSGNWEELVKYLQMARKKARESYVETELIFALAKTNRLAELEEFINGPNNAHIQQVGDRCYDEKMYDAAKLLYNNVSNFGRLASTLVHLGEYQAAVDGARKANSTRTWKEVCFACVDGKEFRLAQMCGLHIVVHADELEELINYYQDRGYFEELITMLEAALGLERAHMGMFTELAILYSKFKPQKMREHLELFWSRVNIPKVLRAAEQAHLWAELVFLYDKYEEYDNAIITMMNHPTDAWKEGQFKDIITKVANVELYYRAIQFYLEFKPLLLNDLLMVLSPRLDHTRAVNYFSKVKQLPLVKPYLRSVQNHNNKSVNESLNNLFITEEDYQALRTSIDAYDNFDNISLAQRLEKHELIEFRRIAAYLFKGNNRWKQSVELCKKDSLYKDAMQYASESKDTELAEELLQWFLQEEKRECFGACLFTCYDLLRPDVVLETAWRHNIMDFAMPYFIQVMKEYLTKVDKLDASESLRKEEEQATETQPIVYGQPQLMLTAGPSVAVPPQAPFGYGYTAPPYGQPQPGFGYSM
UniProt Q9UJS0: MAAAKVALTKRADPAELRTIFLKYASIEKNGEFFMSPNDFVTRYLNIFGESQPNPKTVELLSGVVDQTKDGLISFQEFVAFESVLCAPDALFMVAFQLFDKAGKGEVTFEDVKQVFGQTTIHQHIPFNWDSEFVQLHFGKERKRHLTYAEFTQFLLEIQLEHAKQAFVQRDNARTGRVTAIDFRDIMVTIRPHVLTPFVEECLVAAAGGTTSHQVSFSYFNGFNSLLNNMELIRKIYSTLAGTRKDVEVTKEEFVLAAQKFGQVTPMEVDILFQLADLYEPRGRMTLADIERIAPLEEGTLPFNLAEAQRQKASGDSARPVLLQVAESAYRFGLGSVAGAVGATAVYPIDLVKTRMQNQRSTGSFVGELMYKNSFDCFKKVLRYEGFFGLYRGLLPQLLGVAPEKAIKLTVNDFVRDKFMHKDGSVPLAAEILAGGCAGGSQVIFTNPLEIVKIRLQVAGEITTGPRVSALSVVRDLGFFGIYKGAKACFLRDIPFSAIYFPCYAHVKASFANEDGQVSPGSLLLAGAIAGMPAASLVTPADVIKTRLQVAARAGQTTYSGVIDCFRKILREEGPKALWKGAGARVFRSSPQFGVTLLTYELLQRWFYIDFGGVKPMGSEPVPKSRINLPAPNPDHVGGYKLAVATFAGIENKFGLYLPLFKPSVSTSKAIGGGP
UniProt O60506: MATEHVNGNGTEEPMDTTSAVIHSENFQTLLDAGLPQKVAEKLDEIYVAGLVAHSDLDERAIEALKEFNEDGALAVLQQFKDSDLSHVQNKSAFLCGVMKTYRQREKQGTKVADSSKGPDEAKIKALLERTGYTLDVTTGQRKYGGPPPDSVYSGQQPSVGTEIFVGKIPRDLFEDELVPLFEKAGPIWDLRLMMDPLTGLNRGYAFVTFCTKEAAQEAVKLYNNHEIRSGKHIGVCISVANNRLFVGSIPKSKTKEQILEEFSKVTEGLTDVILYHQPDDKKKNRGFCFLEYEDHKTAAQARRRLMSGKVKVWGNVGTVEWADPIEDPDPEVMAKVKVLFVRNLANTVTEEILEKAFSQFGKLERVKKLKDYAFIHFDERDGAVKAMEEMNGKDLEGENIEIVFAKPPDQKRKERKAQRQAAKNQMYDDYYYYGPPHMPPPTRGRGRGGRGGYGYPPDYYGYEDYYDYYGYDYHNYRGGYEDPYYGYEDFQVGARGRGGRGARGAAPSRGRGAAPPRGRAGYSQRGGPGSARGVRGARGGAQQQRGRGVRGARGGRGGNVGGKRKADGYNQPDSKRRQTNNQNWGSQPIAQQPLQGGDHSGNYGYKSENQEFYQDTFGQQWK
UniProt P48681: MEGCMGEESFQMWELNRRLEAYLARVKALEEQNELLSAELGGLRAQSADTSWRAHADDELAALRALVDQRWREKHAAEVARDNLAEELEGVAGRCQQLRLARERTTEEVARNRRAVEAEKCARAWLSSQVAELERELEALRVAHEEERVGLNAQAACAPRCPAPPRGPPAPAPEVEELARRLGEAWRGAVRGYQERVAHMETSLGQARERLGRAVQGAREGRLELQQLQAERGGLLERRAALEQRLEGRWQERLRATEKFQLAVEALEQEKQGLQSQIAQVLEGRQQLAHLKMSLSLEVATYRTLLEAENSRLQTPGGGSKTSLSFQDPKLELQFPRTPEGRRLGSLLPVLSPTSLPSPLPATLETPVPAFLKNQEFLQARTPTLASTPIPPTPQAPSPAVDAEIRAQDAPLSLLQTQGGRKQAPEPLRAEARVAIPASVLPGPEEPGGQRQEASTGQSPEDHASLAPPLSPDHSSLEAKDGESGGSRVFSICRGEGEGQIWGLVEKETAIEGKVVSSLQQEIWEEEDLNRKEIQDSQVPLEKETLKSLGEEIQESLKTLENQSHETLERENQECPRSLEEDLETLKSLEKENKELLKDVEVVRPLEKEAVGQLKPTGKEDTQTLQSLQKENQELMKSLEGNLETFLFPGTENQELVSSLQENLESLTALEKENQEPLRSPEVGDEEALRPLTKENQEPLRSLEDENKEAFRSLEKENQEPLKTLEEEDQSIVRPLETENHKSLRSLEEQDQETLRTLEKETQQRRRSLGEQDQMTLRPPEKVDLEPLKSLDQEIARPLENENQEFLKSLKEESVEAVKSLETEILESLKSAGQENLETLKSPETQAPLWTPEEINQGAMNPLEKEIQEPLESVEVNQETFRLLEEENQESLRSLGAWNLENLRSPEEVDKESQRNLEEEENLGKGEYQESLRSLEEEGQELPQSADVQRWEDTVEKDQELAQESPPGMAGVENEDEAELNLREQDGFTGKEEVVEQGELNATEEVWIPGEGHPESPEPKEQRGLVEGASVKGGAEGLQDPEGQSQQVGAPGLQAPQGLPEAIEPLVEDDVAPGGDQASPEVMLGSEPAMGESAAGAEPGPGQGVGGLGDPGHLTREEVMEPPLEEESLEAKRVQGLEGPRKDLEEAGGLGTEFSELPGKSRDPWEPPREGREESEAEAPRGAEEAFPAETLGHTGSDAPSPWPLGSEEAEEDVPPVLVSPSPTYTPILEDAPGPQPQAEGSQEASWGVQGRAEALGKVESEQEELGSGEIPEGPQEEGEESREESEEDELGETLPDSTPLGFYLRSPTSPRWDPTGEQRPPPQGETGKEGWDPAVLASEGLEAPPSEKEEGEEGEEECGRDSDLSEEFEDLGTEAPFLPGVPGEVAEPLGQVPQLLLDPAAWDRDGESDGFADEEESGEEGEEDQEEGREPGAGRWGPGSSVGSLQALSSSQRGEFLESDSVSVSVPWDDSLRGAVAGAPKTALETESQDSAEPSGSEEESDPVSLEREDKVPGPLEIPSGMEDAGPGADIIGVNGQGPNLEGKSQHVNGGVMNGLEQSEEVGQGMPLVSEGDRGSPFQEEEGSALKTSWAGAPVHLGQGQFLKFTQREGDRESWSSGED
UniProt P27824, residues 21-592: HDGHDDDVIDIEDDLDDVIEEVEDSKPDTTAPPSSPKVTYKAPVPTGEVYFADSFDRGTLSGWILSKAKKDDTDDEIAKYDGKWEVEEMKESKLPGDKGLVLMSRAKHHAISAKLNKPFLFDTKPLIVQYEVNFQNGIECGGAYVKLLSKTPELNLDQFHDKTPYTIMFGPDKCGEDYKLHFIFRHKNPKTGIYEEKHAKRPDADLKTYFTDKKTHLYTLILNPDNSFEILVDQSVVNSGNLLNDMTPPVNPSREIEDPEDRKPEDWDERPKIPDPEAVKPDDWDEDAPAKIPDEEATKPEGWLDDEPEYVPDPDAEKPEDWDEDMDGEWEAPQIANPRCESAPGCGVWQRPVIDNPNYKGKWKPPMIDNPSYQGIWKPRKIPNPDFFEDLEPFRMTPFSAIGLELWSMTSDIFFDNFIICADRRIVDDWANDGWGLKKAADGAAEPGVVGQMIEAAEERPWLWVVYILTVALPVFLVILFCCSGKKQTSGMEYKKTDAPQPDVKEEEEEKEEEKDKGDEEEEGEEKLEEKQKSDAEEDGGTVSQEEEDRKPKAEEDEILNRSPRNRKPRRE
UniProt P07237, residues 18-508: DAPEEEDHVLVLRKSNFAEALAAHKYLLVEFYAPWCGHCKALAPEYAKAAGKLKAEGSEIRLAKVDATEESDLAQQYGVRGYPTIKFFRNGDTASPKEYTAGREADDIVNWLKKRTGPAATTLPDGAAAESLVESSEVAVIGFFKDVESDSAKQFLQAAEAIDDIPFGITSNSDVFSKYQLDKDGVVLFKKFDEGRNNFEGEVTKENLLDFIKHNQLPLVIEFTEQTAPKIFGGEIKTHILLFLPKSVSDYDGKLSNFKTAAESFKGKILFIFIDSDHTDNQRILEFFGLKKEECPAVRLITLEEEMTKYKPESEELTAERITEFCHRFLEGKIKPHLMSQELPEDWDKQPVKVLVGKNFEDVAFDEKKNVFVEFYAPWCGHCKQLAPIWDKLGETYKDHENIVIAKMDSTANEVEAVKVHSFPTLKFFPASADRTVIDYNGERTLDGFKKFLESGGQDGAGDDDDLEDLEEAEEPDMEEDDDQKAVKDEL

Assay [2] addresses T1, wild type US2 with three HA tags added to the C-terminus (human cytomegalovirus). Described as above. The source holds these as a separate data set.

Read-outs that look alike come from different tables or passages of the source. These are yes or no findings as the source states them, for the method shown. In cells and extracts the contact can be indirect. A yes stands for co-enrichment or nearness to the bait. Other partners may have been found. Sequences can lack the tags named with a protein.

BiP (from UniProt P11021 19-654): in assay [1], the binding result was “binds”.

For the molecule “CLH1 (CLTC) (from UniProt Q00610 1-1675)”, the binding entry in assay [1] was “binds”.

On to “CMC2 (SLC25A13) (from UniProt Q9UJS0 1-675)”, for which, in assay [1], the binding result is on record as “binds”.

Take “HNRPQ (SYNCRIP) (from UniProt O60506 1-623)”: the binding result in assay [1] is on record as “binds”.

Regarding NEST (NES) (from UniProt P48681 1-1621), the binding result in assay [1] is given as “binds”.

For the molecule calnexin (from UniProt P27824 21-592), the binding result in assay [1] is listed as “binds”.

“calreticulin (from UniProt P27797 18-417)”: in assay [1], the binding entry is “binds”.

p97 (TERA) (from UniProt P55072 1-806): the binding result in assay [1] is on record as “binds”.

Take “protein disulfide isomerase (from UniProt P07237 18-508) (enzyme)”: in assay [1], the binding entry was “binds”.

B1: PDIA6 (enzyme, UniProt Q15084 20-440)
chain: LYSSSDDVIELTPSNFNREVIQSDSLWLVEFYAPWCGHCQRLTPEWKKAATALKDVVKVGAVDADKHHSLGGQYGVQGFPTIKIFGSNKNRPEDYQGGRTGEAIVDAALSALRQLVKDRLGGRSGGYSSGKQGRSDSSSKKDVIELTDDSFDKNVLDSEDVWMVEFYAPWCGHCKNLEPEWAAAASEVKEQTKGKVKLAAVDATVNQVLASRYGIRGFPTIKIFQKGESPVDYDGGRTRSDIVSRALDLFSDNAPPPELLEIINEDIAKRTCEEHQLCVVAVLPHILDTGAAGRNSYLEVLLKLADKYKKKMWGWLWTEAGAQSELETALGIGGFGYPAMAAINARKMKFALLKGSFSEQGINEFLRELSFGRGSTAPVGGGAFPTIVEREPWDGRDGELPVEDDIDLSDVELDDLGKDEL
Take B1: the binding result in assay [2] is on record as “binds”.

B2: TMEM33 (protein, UniProt P57088 1-247)
chain: MADTTPNGPQGAGAVQFMMTNKLDTAMWLSRLFTVYCSALFVLPLLGLHEAASFYQRALLANALTSALRLHQRLPHFQLSRAFLAQALLEDSCHYLLYSLIFVNSYPVTMSIFPVLLFSLLHAATYTKKVLDARGSNSLPLLRSVLDKLSANQQNILKFIACNEIFLMPATVFMLFSGQGSLLQPFIYYRFLTLRYSSRRNPYCRTLFNELRIVVEHIIMKPACPLFVRRLCLQSIAFISRLAPTVP
B2: in assay [2], the binding result is listed as “binds”.

B3: THY1 (protein, UniProt P04216 20-130)
chain: QKVTSLTACLVDQSLRLDCRHENTSSSPIQYEFSLTRETKKHVLFGTVGVPEHTYRSRTNFTSKYNMKVLYLSAFTSKDEGTYTCALHHSGHSPPISSQNVTVLRDKLVKC
Regarding B3, the binding entry in assay [2] is on record as “binds”.

The record behind these values is PMC4686535.
